Experiment [1] has as its target T1, FK506-binding protein 5 (FKBP5) (human (endogenous in SKOV3/Tx600)) (UniProt Q13451).
T1 sequence: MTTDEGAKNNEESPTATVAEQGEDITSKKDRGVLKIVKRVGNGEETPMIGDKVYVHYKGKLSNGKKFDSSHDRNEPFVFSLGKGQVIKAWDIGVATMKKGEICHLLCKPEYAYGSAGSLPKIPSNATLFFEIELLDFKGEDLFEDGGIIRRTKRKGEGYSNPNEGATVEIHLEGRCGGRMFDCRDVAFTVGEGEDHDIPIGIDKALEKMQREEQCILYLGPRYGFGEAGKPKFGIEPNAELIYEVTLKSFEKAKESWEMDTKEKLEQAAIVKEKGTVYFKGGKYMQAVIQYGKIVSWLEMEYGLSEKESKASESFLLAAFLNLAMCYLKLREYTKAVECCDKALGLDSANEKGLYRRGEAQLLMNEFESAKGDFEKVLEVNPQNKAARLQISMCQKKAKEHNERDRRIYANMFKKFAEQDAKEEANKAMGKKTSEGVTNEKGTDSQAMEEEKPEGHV
The experiment in a line: condition: only after stimulation of the cells with DHT; co-IP; 500 ug of SKOV3/Tx600 (txr) cell extracts immunoprecipitated with antibody against FKBP5 or IgG as control; cells treated with DHT for the indicated time period (activated AR).

Sequences of proteins named here, by UniProt entry; tags and fusion partners are left off.
UniProt P10275: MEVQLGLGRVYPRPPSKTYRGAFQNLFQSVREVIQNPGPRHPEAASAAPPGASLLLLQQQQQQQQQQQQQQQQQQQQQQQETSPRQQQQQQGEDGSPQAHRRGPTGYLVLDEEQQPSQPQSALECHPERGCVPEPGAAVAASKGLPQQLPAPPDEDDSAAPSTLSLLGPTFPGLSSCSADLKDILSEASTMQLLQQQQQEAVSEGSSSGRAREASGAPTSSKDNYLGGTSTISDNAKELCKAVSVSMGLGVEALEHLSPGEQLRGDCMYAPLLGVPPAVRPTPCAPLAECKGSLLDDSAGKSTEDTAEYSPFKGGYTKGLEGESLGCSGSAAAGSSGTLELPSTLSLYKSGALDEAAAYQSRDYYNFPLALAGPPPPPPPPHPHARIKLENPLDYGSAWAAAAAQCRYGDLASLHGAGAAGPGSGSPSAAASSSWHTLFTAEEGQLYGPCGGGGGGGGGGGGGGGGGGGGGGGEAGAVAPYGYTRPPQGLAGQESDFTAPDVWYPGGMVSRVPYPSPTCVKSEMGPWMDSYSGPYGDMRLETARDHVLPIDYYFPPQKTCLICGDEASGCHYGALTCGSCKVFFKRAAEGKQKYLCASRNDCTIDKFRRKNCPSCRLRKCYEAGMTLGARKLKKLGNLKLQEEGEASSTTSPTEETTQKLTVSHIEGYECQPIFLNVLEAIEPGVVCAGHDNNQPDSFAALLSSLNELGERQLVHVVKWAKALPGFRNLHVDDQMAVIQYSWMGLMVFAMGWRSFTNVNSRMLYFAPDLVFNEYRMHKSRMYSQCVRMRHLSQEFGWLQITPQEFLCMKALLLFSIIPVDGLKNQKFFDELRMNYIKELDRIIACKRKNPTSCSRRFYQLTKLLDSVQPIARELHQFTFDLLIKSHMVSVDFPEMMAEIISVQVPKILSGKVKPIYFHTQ

Experiment [2] concerns the target T1, FK506-binding protein 5 (FKBP5) (human (endogenous in SKOV3/Tx600)). The experiment in a line: co-IP; 500 ug of SKOV3/Tx600 (txr) cell extracts immunoprecipitated with antibody against FKBP5 or IgG as control; cells without DHT (inactivated AR).
For experiment [3], the target named is T2, Flag-FKBP5 (UniProt Q13451).
T2 sequence: T1 sequence
The experiment in a line: co-IP; HEK293T cells transfected with AR and FKBP5 plasmids; performed as in Fig. 4C (immunoprecipitation with antibody against FKBP5 or IgG); cells without DHT.

In experiment [4] the target is T2, Flag-FKBP5. The experiment is described as follows: condition: only after stimulation of the cells with DHT; co-IP; HEK293T cells transfected with AR and FKBP5 plasmids; performed as in Fig. 4C (immunoprecipitation with antibody against FKBP5 or IgG); cells treated with DHT (activated AR).

No constants are given. Whether binding was seen depends on the method and setting. Binding seen in cells or lysates may run through a third protein. Some binding calls cover weakened binding; strength is not graded here. For some of these results: Sequences can lack the tags named with a protein.

Regarding “androgen receptor (AR) (from UniProt P10275 1-920)”, the figures for the binding result in experiment [1] and in experiment [2] were “no binding” and “binds”, respectively.
Consider “androgen receptor (AR) expressed from pSG5-AR (from UniProt P10275 1-920)”, for which the binding entry was “binds” with Flag-FKBP5 [3] and “no binding” in the experiment with Flag-FKBP5 [4].

(Values after publication PMC4322968.)
